Results are given in words; binding and its absence hold for the method and conditions named. Binding seen in cells or lysates may run through a third protein. A yes stands for co-enrichment or nearness to the bait. Other partners may have been found.
B1: HELLS (protein, UniProt Q9NRZ9 1-838)
chain: MPAERPAGSGGSEAPAMVEQLDTAVITPAMLEEEEQLEAAGLERERKMLEKARMSWDRESTEIRYRRLQHLLEKSNIYSKFLLTKMEQQQLEEQKKKEKLERKKESLKVKKGKNSIDASEEKPVMRKKRGREDESYNISEVMSKEEILSVAKKNKKENEDENSSSTNLCVEDLQKNKDSNSIIKDRLSETVRQNTKFFFDPVRKCNGQPVPFQQPKHFTGGVMRWYQVEGMEWLRMLWENGINGILADEMGLGKTVQCIATIALMIQRGVPGPFLVCGPLSTLPNWMAEFKRFTPDIPTMLYHGTQEERQKLVRNIYKRKGTLQIHPVVITSFEIAMRDRNALQHCYWKYLIVDEGHRIKNMKCRLIRELKRFNADNKLLLTGTPLQNNLSELWSLLNFLLPDVFDDLKSFESWFDITSLSETAEDIIAKEREQNVLHMLHQILTPFLLRRLKSDVALEVPPKREVVVYAPLSKKQEIFYTAIVNRTIANMFGSSEKETIELSPTGRPKRRTRKSINYSKIDDFPNELEKLISQIQPEVDRERAVVEVNIPVESEVNLKLQNIMMLLRKCCNHPYLIEYPIDPVTQEFKIDEELVTNSGKFLILDRMLPELKKRGHKVLLFSQMTSMLDILMDYCHLRDFNFSRLDGSMSYSEREKNMHSFNTDPEVFIFLVSTRAGGLGINLTAADTVIIYDSDWNPQSDLQAQDRCHRIGQTKPVVVYRLVTANTIDQKIVERAAAKRKLEKLIIHKNHFKGGQSGLNLSKNFLDPKELMELLKSRDYEREIKGSREKVISDKDLELLLDRSDLIDQMNASGPIKEKMGIFKILENSEDSSPECLF
B2: TMPO (protein, UniProt P42166 1-694)
chain: MPEFLEDPSVLTKDKLKSELVANNVTLPAGEQRKDVYVQLYLQHLTARNRPPLPAGTNSKGPPDFSSDEEREPTPVLGSGAAAAGRSRAAVGRKATKKTDKPRQEDKDDLDVTELTNEDLLDQLVKYGVNPGPIVGTTRKLYEKKLLKLREQGTESRSSTPLPTISSSAENTRQNGSNDSDRYSDNEEGKKKEHKKVKSTRDIVPFSELGTTPSGGGFFQGISFPEISTRPPLGSTELQAAKKVHTSKGDLPREPLVATNLPGRGQLQKLASERNLFISCKSSHDRCLEKSSSSSSQPEHSAMLVSTAASPSLIKETTTGYYKDIVENICGREKSGIQPLCPERSHISDQSPLSSKRKALEESESSQLISPPLAQAIRDYVNSLLVQGGVGSLPGTSNSMPPLDVENIQKRIDQSKFQETEFLSPPRKVPRLSEKSVEERDSGSFVAFQNIPGSELMSSFAKTVVSHSLTTLGLEVAKQSQHDKIDASELSFPFHESILKVIEEEWQQVDRQLPSLACKYPVSSREATQILSVPKVDDEILGFISEATPLGGIQAASTESCNQQLDLALCRAYEAAASALQIATHTAFVAKAMQADISQAAQILSSDPSRTHQALGILSKTYDAASYICEAAFDEVKMAAHTMGNATVGRRYLWLKDCKINLASKNKLASTPFKGGTLFGGEVCKVIKKRGNKH
B3: CHERP (protein, UniProt Q8IWX8 1-916)
chain: MEMPLPPDDQELRNVIDKLAQFVARNGPEFEKMTMEKQKDNPKFSFLFGGEFYSYYKCKLALEQQQLICKQQTPELEPAATMPPLPQPPLAPAAPIPPAQGAPSMDELIQQSQWNLQQQEQHLLALRQEQVTAAVAHAVEQQMQKLLEETQLDMNEFDNLLQPIIDTCTKDAISAGKNWMFSNAKSPPHCELMAGHLRNRITADGAHFELRLHLIYLINDVLHHCQRKQARELLAALQKVVVPIYCTSFLAVEEDKQQKIARLLQLWEKNGYFDDSIIQQLQSPALGLGQYQATLINEYSSVVQPVQLAFQQQIQTLKTQHEEFVTSLAQQQQQQQQQQQQLQMPQMEAEVKATPPPPAPPPAPAPAPAIPPTTQPDDSKPPIQMPGSSEYEAPGGVQDPAAAGPRGPGPHDQIPPNKPPWFDQPHPVAPWGQQQPPEQPPYPHHQGGPPHCPPWNNSHEGMWGEQRGDPGWNGQRDAPWNNQPDAAWNSQFEGPWNSQHEQPPWGGGQREPPFRMQRPPHFRGPFPPHQQHPQFNQPPHPHNFNRFPPRFMQDDFPPRHPFERPPYPHRFDYPQGDFPAEMGPPHHHPGHRMPHPGINEHPPWAGPQHPDFGPPPHGFNGQPPHMRRQGPPHINHDDPSLVPNVPYFDLPAGLMAPLVKLEDHEYKPLDPKDIRLPPPMPPSERLLAAVEAFYSPPSHDRPRNSEGWEQNGLYEFFRAKMRARRRKGQEKRNSGPSRSRSRSKSRGRSSSRSNSRSSKSSGSYSRSRSRSCSRSYSRSRSRSRSRSRSSRSRSRSQSRSRSKSYSPGRRRRSRSRSPTPPSSAGLGSNSAPPIPDSRLGEENKGHQMLVKMGWSGSGGLGAKEQGIQDPIKGGDVRDKWDQYKGVGVALDDPYENYRRNKSYSFIARMKARDECK

Protein sequences, listed by entry. Tags and fused reporters are not part of them.
UniProt P26368: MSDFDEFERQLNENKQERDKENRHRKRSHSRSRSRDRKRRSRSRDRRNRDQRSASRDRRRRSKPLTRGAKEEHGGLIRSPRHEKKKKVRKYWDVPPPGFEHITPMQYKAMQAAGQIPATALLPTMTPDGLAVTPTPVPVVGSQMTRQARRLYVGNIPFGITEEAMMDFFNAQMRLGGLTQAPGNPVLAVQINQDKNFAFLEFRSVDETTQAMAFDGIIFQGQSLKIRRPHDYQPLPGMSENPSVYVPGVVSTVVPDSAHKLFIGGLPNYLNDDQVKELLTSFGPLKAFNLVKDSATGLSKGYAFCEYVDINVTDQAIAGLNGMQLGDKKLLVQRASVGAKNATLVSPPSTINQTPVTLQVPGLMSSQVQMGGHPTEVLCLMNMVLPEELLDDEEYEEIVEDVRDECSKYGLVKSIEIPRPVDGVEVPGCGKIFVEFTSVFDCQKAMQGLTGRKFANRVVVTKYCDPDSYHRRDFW

The binders below were run against U2AF2-TurboID-HA (human) (UniProt P26368) (assay: proximity labelling; U2AF2-TurboID-HA induced with doxycycline for 4 h in mesoderm cells differentiated from hiPSC (CHIR99021, 24 h); biotinylated proteins purified on streptavidin magnetic beads, LC-MS with label-free quantification; hits: Log2ΔLFQ >= 2 and p <= 0.05, mesoderm against pluripotent U2AF2-TurboID samples or against GFP-TurboID).

Binder	binding
B1	binds
B2	binds
B3	binds

From paper PMC12124498
